Laboratory results taken from PubChem BioAssay (NCATS).
Inconclusive results, whose numbers are uncertain, are shown with a selection of clear calls. For some assays here: Where the call is inconclusive, the potency comes from a doubtful curve fit. Calls of active or inactive are those of the source. The call rests on the fitted dose curve; in most records, active means well fitted cell-killing curve with a large enough effect; inconclusive means small, poorly fitted or top-dose-only effect, or effect the other way; inactive means no such curve, though single readings can be large or run the other way.

Assays:
[1] = Quantitative High-Throughput drug screen in 47 multiple myeloma cell lines against the NCATS MIPE library collection: MOLP8_DSMZ cell viability assay (AID 1918977); further: nearly all actives have a fitted effect of over 45% in size;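 on viability (% of control): 100% = DMSO-only wells and 0% = media-only wells without cells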
Outline: (§1)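 Cells were exposed to library compounds for 48 hours, after which ATP was measured by CellTiter-Glo. Signal was taken as median relative luminescence units.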

[2] = Quantitative High-Throughput drug screen in 47 multiple myeloma cell lines against the NCATS MIPE library collection: MM1R_ATCC cell viability assay (AID 1918981); further: nearly all actives have a fitted effect of over 35% in size
Outline: as §1

[3] = Quantitative High-Throughput drug screen in 47 multiple myeloma cell lines against the NCATS MIPE library collection: LP1_DSMZ cell viability assay (AID 1918982); further: nearly all actives have a fitted effect of over 35% in size
Outline: as §1

[4] = Quantitative High-Throughput drug screen in 47 multiple myeloma cell lines against the NCATS MIPE library collection: L363_DSMZ cell viability assay (AID 1918984); details: L363 myeloma viability, CellTiter-Glo ATP luminescence, 48 h; viability (% of control): at 45.8 µM (top of the series); further: nearly all actives have a fitted effect of over 40% in size
Outline: as §1

[5] = Quantitative High-Throughput drug screen in 47 multiple myeloma cell lines against the NCATS MIPE library collection: KMS34_JCRB cell viability assay (AID 1918985); details: KMS34 myeloma viability, CellTiter-Glo ATP luminescence, 48 h; viability, percent of control: at 45.8 µM; further: nearly all actives have a fitted effect of over 40% in size;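 on viability, percent of control: 100% = DMSO-only wells and 0% = media-only wells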
Outline: as §1

[6] = Quantitative High-Throughput drug screen in 47 multiple myeloma cell lines against the NCATS MIPE library collection: OCIMY7_PLB cell viability assay (AID 1918987); details: OCI-MY7 myeloma viability, CellTiter-Glo ATP, 48 h; viability (% of DMSO): at 45.8 µM unless noted; further: nearly all actives have a fitted effect of over 65% in size
Outline: as §1

[7] = Quantitative High-Throughput drug screen in 47 multiple myeloma cell lines against the NCATS MIPE library collection: OCIMY5_PLB cell viability assay (AID 1918988); details: OCI-MY5 myeloma viability, ATP luminescence, 48 h; viability, % of control: at 45.8 µM; further: nearly all actives have a fitted effect of over 65% in size;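 on viability, % of control: 100% = DMSO-treated wells and 0% = wells with media alone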
Outline: as §1

[8] = Quantitative High-Throughput drug screen in 47 multiple myeloma cell lines against the NCATS MIPE library collection: OPM1_PLB cell viability assay (AID 1918989); details: CellTiter-Glo, 48 h; viability (% of control): at 45.8 µM; further: nearly all actives have a fitted effect of over 40% in size;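 on viability (% of control): 100% = DMSO-only wells and 0% = media-only wells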
Outline: as §1

[9] = Quantitative High-Throughput drug screen in 47 multiple myeloma cell lines against the NCATS MIPE library collection: SKMM1_PLB cell viability assay (AID 1919863); details: SKMM1 myeloma viability, CellTiter-Glo ATP, 48 h; viability: active compounds read low; further: nearly all actives have a fitted effect of over 35% in size
Outline: as §1

[10] = Quantitative High-Throughput drug screen in 47 multiple myeloma cell lines against the NCATS MIPE library collection: XG6_PLB cell viability assay (AID 1919865); details: XG6 myeloma viability, CellTiter-Glo ATP luminescence, 48 h; viability (% of control): at 45.8 µM; further: nearly all actives have a fitted effect of over 40% in size;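 on viability (% of control): 100% = DMSO-only wells and 0% = media-only wells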
Outline: as §1

[11] = Quantitative High-Throughput drug screen in 47 multiple myeloma cell lines against the NCATS MIPE library collection: XG1_PLB cell viability assay (AID 1919866); further: nearly all actives have a fitted effect of over 35% in size
Outline: as §1

[12] = Quantitative High-Throughput drug screen in 47 multiple myeloma cell lines against the NCATS MIPE library collection: VP6_DJ cell viability assay (AID 1919867); details: ATP luminescence, 48 h; viability (% of DMSO): at 45.8 µM; further: nearly all actives have a fitted effect of over 40% in size;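 on viability (% of DMSO): 100% = DMSO-only wells and 0% = wells with media alone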
Outline: as §1

[13] = Quantitative High-Throughput drug screen in 47 multiple myeloma cell lines against the NCATS MIPE library collection: UTMC2_PLB cell viability assay (AID 1919868); details: CellTiter-Glo ATP luminescence, 48 h; viability (% of DMSO control): at 45.8 µM; further: nearly all actives have a fitted effect of over 55% in size;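 on viability (% of DMSO control): 100% = DMSO-only wells and 0% = media-only wells without cells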
Outline: as §1

[14] = Quantitative High-Throughput drug screen in 47 multiple myeloma cell lines against the NCATS MIPE library collection: PE2_PLB cell viability assay (AID 1919869); details: PE2_PLB myeloma cells viability, ATP luminescence, 48 h; viability (% of control): at 45.8 µM; further: nearly all actives have a fitted effect of over 35% in size;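 on viability (% of control): 100% = DMSO-only wells and 0% = cell-free media-only wells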
Outline: as §1

[15] = Quantitative High-Throughput drug screen in 47 multiple myeloma cell lines against the NCATS MIPE library collection: PCM6_Riken cell viability assay (AID 1919870); details: CellTiter-Glo ATP, 48 h; viability (% of control): at 45.8 µM; further: nearly all actives have a fitted effect of over 30% in size;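 on viability (% of control): 100% = DMSO-only wells and 0% = media-only wells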
Outline: as §1

[16] = Quantitative High-Throughput drug screen in 47 multiple myeloma cell lines against the NCATS MIPE library collection: MM1S_ATCC cell viability assay (AID 1918980); further: nearly all actives have a fitted effect of over 45% in size;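 on viability (% of control): 100% = wells with DMSO only and 0% = wells with media only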
Outline: as §1

[17] = Quantitative High-Throughput drug screen in 47 multiple myeloma cell lines against the NCATS MIPE library collection: U266_ATCC cell viability assay (AID 1919864); further: nearly all actives have a fitted effect of over 35% in size;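 on viability (% of DMSO control): 0% = media-only wells without cells and 100% = DMSO-only wells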
Outline: as §1
Potency means the concentration at half of the fitted maximal effect.

Nc1nc(N)c2nc(CNc3ccc(C(=O)NC(CCC(=O)O)C(=O)O)cc3)cnc2n1 (stereo not drawn)
inactive: Potency [1]
inconclusive: Potency [2] 13.2 nM [cytotoxic, full curve] | Potency [4] 37200 nM [rising, single point] | Potency [5] 105 nM [cytotoxic, full curve] | Potency [6] 26.4 nM [cytotoxic, full curve, poor fit] | Potency [7] 33.2 nM [cytotoxic, full curve, poor fit] | Potency [8] 118 nM [cytotoxic, full curve] | Potency [9] 33200 nM [cytotoxic, single point] | Potency [10] 46.9 nM [cytotoxic, full curve] | Potency [12] 33.2 nM [cytotoxic, full curve] | Potency [13] 118 nM [cytotoxic, full curve, poor fit] | Potency [14] 132 nM [cytotoxic, full curve, poor fit] | Potency [15] 52.6 nM [cytotoxic, full curve]
active: Potency [3] 29.6 nM | Potency [11] 33.2 nM

N#Cc1c(O)c2c(-c3ccc(-c4ccccc4O)cc3)csc2[nH]c1=O
inconclusive: Potency [6] 4.7 nM [rising, full curve, poor fit] | Potency [8] 14800 nM [cytotoxic, partial curve, poor fit] | Potency [9] 105 nM [cytotoxic, full curve, poor fit] | Potency [12] 1.2 nM [rising, full curve, poor fit] | viability (% of DMSO control) [13] 221%
inactive: Potency [1] | Potency [4] | Potency [5] | Potency [7] | Potency [17] | Potency [10] | Potency [11] | Potency [14]
active: Potency [16] 16600 nM

NC(=O)c1cccc(-c2cccc(OC(=O)NC3CCCCC3)c2)c1
inconclusive: Potency [4] 2.1 nM [rising, full curve, poor fit] | Potency [5] 74.3 nM [rising, full curve, poor fit] | Potency [11] 23500 nM [cytotoxic, partial curve, poor fit]
inactive: Potency [1] | Potency [16] | Potency [6] | Potency [8] | viability [9] 110% | Potency [17] | Potency [12] | Potency [13] | Potency [14] | Potency [15]

COC(=O)[C@@H]1CC2=CC(=O)CC[C@]2(C)[C@@]23O[C@@H]2C[C@@]2(C)[C@H](CC[C@@]24CCC(=O)O4)[C@@H]13
inconclusive: Potency [4] 8330 nM [rising, full curve, poor fit] | Potency [6] 105 nM [rising, full curve, poor fit] | viability, % of control [7] 107% [cytotoxic] | Potency [9] 1.3 nM [rising, full curve, poor fit] | Potency [12] 7430 nM [cytotoxic, partial curve, poor fit] | Potency [13] 662 nM [rising, partial curve, poor fit]
inactive: Potency [1] | Potency [2] | Potency [3] | Potency [5] | Potency [17] | Potency [10] | Potency [15]

NC(=O)c1ncn([C@@H]2O[C@H](CO)[C@@H](O)[C@@H]2O)n1
inactive: Potency [3] | Potency [6] | Potency [10] | Potency [11]
inconclusive: Potency [1] 37200 nM [cytotoxic, single point] | Potency [2] 3720 nM [rising, full curve, poor fit] | viability (% of control) [4] 91.1% [cytotoxic] | Potency [5] 4.7 nM [cytotoxic, full curve, poor fit] | Potency [7] 37200 nM [cytotoxic, single point] | Potency [9] 37200 nM [cytotoxic, single point] | Potency [17] 5260 nM [rising, partial curve, poor fit] | Potency [12] 41.8 nM [rising, full curve, poor fit] | Potency [13] 264 nM [cytotoxic, full curve, poor fit]
